PMC3531493, “Inhibition of a NEDD8 Cascade Restores Restriction of HIV by APOBEC3G” (PLoS Pathogens, 2012)
Results are given in words; binding and its absence hold for the method and conditions named. A result given as binding can be weak or reduced; the word gives no strength.

The chains behind the UniProt entries cited, without tags or fusion partners. Where a name states a change or a piece, a line headed by the entry shows the natural chain unless it says otherwise. Residues count along the entry.
UniProt Q9UBF6, residues 44-113: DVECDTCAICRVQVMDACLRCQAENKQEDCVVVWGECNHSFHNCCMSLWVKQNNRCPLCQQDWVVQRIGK
UniProt Q969M7: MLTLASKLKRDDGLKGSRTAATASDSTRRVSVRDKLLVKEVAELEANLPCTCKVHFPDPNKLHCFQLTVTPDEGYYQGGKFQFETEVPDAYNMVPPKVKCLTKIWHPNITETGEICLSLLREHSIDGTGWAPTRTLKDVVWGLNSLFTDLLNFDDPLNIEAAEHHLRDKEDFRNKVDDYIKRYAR

Molecular target: RBX2 RING domain (44-113) (UniProt Q9UBF6)
Assay: NMR titration; 15N-HSQC of 50 µM 15N-labelled RBX2 RING with unlabelled E2 added (∼100 µM in Fig. 3D; increasing concentrations in Fig. 5D); 20°C; 100 mM NaCl, 1 mM DTT, 25 mM HEPES pH 7.5; both purified

| binding | Substance |
| --- | --- |
| binds | UBE2F (ΔLoop) (from UniProt Q969M7) (enzyme) |
| no binding | UBE2F (N92A) (from UniProt Q969M7) (enzyme) |
